# Primary screen of a compound library

The chains behind the UniProt entries cited, without tags or fusion partners.
UniProt E9BF75, entry or part of it: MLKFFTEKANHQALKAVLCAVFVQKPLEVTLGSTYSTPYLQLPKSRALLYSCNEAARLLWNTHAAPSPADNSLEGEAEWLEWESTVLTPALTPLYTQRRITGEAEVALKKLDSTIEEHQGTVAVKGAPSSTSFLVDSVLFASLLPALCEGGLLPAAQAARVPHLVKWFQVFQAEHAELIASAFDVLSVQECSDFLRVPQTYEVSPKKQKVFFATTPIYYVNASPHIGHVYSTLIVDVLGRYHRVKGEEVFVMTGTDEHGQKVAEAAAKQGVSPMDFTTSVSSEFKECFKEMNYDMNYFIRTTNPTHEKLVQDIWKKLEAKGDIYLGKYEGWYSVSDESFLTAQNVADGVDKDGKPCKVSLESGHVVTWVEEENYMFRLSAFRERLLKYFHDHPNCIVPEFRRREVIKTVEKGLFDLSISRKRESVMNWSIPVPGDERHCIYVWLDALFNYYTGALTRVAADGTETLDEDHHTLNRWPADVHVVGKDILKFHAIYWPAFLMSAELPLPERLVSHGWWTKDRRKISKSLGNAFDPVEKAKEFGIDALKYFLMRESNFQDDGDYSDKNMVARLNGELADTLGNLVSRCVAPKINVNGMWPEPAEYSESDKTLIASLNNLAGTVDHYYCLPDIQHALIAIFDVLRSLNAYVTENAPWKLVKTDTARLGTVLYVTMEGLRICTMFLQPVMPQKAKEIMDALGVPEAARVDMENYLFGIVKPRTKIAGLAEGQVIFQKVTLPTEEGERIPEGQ

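Primary screen of methionyl-tRNA synthetase; the read-out is not stated. Target: Methionyl-tRNA synthetase (putative), Leishmania donovani (UniProt E9BF75). The test concentration is not given. The values are filed as inhibition. Size under these conditions: about 68,000 compounds, about 24 of them at 50% or above in at least one test.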

All values are in %.
The record does not define 0% and 100%; most values in the screen are far below 50% and negative numbers occur (in some assays of this library far below -100).
Compounds were drawn at random from those tested, without regard to their results.

Compound,inhibition
O=S(=O)(CCN1CCN(c2ccccc2O)CC1)c1ccc(Br)cc1,5.415
CN1C[C@@H]2COC[C@]2(C(=O)NCCc2cccs2)C1,3.65
Cc1cn([C@H]2CCNC[C@]2(C)O)c(=O)[nH]c1=O,13.52
COCCCn1c(CN2CCCCO2)cnc1S(=O)(=O)C1CCCC1,16.08
Cc1cc2[nH]c(=O)oc2cc1S(=O)(=O)N1CCCC(N(C)C)CC1 (configuration not stated),17.98
O=C(c1ccsc1)N1CC[C@H]2C[C@@H](c3nnc(C4CC4)o3)O[C@@H]2C1,9.804
O=C(Nc1nncs1)N(Cc1cccc(F)c1)C1CC1,13.12
COc1cccc2c1ccn2CCNC(=O)C(C)C,16.18
O=C(O)C1CN(c2cccc(F)c2)CCO1 (configuration not stated),1.935
CC1CCCN(Cc2ccnc(-c3cccnc3)n2)C1 (configuration not stated),13.59
Cc1nn(C)c(N2CCOCC2)c1CNC(C)c1ccccn1 (configuration not stated),12.16
O=C(NCCn1ccnc1)c1cc(Br)c[nH]1,10.99
N#Cc1cccnc1N1CCC(OCCc2ccccc2)CC1,8.527
CCn1c(NCc2ccco2)nc2c(C)nn(C)c2c1=O,8.714
O=c1[nH]c2nc(N3CCCC3)ncc2c(=O)n1-c1cccc(F)c1,11.33
Cc1ccc(C(=O)N2CCC3(CCCN(c4ccc(C)nn4)C3)C2)cn1 (configuration not stated),16.81
COCCNC(=O)NCCc1cccc(OC)c1O,7.853
COC(=O)NCCC(=O)NC(C)Cc1ccccc1Br (configuration not stated),7.419
CC(C)Cc1nc(CN2CCOC(Cn3cncn3)C2)no1 (configuration not stated),17.32
CC(=O)N1CCC(C(=O)NCCN2CCC(C)CC2)CC1,15.93
Cc1cnc(CN2CCN(C(C)c3nc(C4CC4)no3)CC2)cn1 (configuration not stated),14.8
CC(C)n1cc(CN2CCCN(C(=O)c3ccnn3C)CC2)cn1,13.04
Cc1cc(C)nc(N2CCC(CNC(=O)c3ccccn3)CC2)n1,19.94
O=C(c1ccccn1)N1CCC2(CC1)C(=O)Nc1ccccc12,8.591
COCC(=O)N(CCC(=O)OC)CC1CCCO1 (configuration not stated),1.882
c1cnn(CCNCc2cnc(N3CCOCC3)nc2)c1,9.763
Cc1nc(N2CCN(C(=O)c3ccncc3)CC2)c2c(n1)c(C)nn2C,12.81
CC(=O)Nc1ccc2c(c1)nc1n2[C@@H](CNCc2ccccc2)COC1,7.692
COCC(C)NC(=O)c1sccc1-n1cnnn1 (configuration not stated),9.756
CCN1CCN(S(=O)(=O)c2c[nH]c(C(C)C)n2)c2ccccc21,12.32
Cc1nn(C)c(C)c1C(C)NCc1ccsc1 (configuration not stated),0.361
Cn1c(N)nnc1SCc1cc(Br)ccc1Cl,19.94
COCCN1C(=O)[C@H]2CC[C@@H]1CN(C(=O)COc1ccc(F)c(Cl)c1)C2,13.24
COc1cc(C2CC(=O)Nc3c2c(=O)[nH]n3C2CCCC2)ccc1O (configuration not stated),2.145
COc1cccc(CCC(=O)N2CCN(CC(C)(C)O)CC2)c1,1.093
CNc1nc2c(s1)C(c1c(Cl)cccc1Cl)CC(=O)N2 (configuration not stated),11.27
Cc1cc(C)n2nc(C(=O)N[C@H]3C[C@H]4CN(C)CCN4C3)cc2n1,2.941
CCc1cc(NC(CCO)c2ccc(OC)cc2)n2nccc2n1 (configuration not stated),11.15
COCC(=O)N1CCCC(c2cc(C(F)F)n3ncnc3n2)C1 (configuration not stated),11.98
Cc1nc(C(C)(C)C)sc1C(=O)NCCn1ccnc1,14.43
c1cncc(C[C@H]2[C@H](N3CCOCC3)CCN2Cc2nccs2)c1,6.84
COCCN1CCC(C(=O)c2cc(F)ccc2F)CC1,25.14
CN(CCCNC(=O)c1ccccc1F)CC(F)(F)F,8.437
CSc1cccc(NC(C)C(=O)Nc2nccs2)c1 (configuration not stated),0.6865
Cc1ccc(CN2CCC3(CC2)C(=O)Nc2ccccc23)s1,19.05
COc1cccc(OC)c1-c1ccnc2cc(CC(=O)N(C)C)nn12,9.951
COc1ccccc1C(C)N1CCN(S(=O)(=O)N(C)C)CC1 (configuration not stated),4.348
Cn1cccc1C(=O)N[C@@H]1CN(S(C)(=O)=O)[C@@H]2COC[C@@H]21,9.63
Cc1nc(-c2cc(C(=O)NCCN3CCOCC3)c3ccccn23)cs1,13.17
O=S(=O)(CCCn1cncn1)Cc1ccc(F)cc1Cl,4.178
CCC(C)Sc1ncc(-c2c(C#N)c(N)nc3c2COCC3)cn1 (configuration not stated),5.497
N#CC1(C(=O)N2C[C@H](Nc3ccnc(N)n3)[C@@H](C3CC3)C2)CCOCC1,7.368
Cc1cccc(C)c1OCC(O)CNCc1c(C)nn(C)c1N(C)C (configuration not stated),13.35
Cc1nc2c(c(NC3CC3)n1)CCN(C(=O)CCc1cccnc1)CC2,10.7
Cc1ccc(CN2CCC3(CC2)OC(C(=O)N(C)C)c2ccccc23)o1 (configuration not stated),10.37
Cc1ccc(C(=O)Nc2cn[nH]c2)cc1C,16.33
O=C(C1CCOC1)N1CCN(CC2CC2)c2ccccc21 (configuration not stated),13.33

Once more, the final 3:

| Compound | inhibition |
|---|---|
| `Cc1ccc(CN2CCC3(CC2)OC(C(=O)N(C)C)c2ccccc23)o1` (configuration not stated) | 10.37 |
| `Cc1ccc(C(=O)Nc2cn[nH]c2)cc1C` | 16.33 |
| `O=C(C1CCOC1)N1CCN(CC2CC2)c2ccccc21` (configuration not stated) | 13.33 |

Data taken from ChEMBL document CHEMBL3988442, “University of Dundee, Small-Polar-MMV Screening Library” (2021).